Results reported in patent EP1792623B1, “Use of extracts and constituents of leontopodium as enhancers of cholinergic function” (Leopold-Franzens-Universität Innsbruck, priority 2005, dated 2007).

Each compound was assayed on acetylcholinesterase. Conditions: 100 µM, after 60 min, n=4; medium control 16477 ± 2759 (part A), 13513 ± 3007 (part B).
Type: biochemical
Method: Experiments are carried out applying Ellman's method in a 96-well microplate assay described by Ingkaninan et al, Journal of Chromatography A 827 (2000) p. 6173 and Rhee et al, Journal of Chromatography A 915 (2001) p. 217-223. In addition to buffer A described above, a buffer containing 0.1 M NaCl and 0.02 M MgClx2.6 H2O in buffer A is used for preparing a 3 mM solution of DTNB. For the microplate assay the substrate ATCI is dissolved 15 mM in water (HPLC grade). The enzyme stock solution is diluted with buffer A to get 0.22 U/ml. In the 96-well plates, 25 µl of 15 mM ATCl, 125 µl of 3 mM DTNB, 50 µl of buffer A, and 25 µl of sample (10 mM in MeOH, respectively DMSO (dimethylsulfoxide), diluted ten times with buffer A) are added. […] […] The absorbance of the product (2-nitrobenzoate-5-mercapto thioline) is measured at 405 nm with a Chameleon 5025 (Hidex, Finland) microplate reader 0, 15, 30, 45 and 60 minutes after adding 25 µl of 0.22 U/ml acetylcholinesterase-solution to the reaction mixture. All experiments are performed 4 times (n=4) and the data are statistically processed using the SPSS 11.5 program package. Percentage of inhibition is calculated by comparing the rates for the sample to the blank (10% MeOH, resp. DMSO, in buffer).

In order of falling “absorption x 10^5 (mean ± sd)” value:
1. C=C(CO)[C@H]1Oc2ccc(C(C)=O)cc2[C@H]1O[C@@H]1O[C@H](CO)[C@@H](O)[C@H](O)[C@H]1O (relative stereo) [1-{(2R*,3R*)-2-[1-(hydroxymethyl)vinyl]-3-(β-D-gluco-pyranosyloxy)-2,3-dihydro-1-benzofuran-5-yl}-ethanone]  16496 ± 2091
2. C=C(C)C1COc2cc3oc(=O)ccc3c(O)c2O1 (stereo not drawn) [5-hydroxy-obliquin]  16085 ± 2083
3. C=C(C)C1COc2cc3oc(=O)ccc3c(OC)c2O1 (stereo not drawn) [5-methoxy-obliquin]  15856 ± 2143
4. CC1=C[C@@H]2[C@@H](CC1)[C@@](C)(O)CC[C@H]2C(C)C [t-Cadinol]  14720 ± 1917
5. C/C=C(/C)C(=O)OC[C@H]1[C@@H](Cc2cc(OC)c(OC)c(OC)c2)CO[C@@H]1c1cc(OC)c(OC)c(OC)c1 [[(2S,3R,4R)-4-(3,4,5-trimethoxy-benzyl)-2-(3,4,5-trimethoxy-phenyl)tetrahydrofuran-3-yl]methyl-(2Z)-2-methylbut-2-en-oate]  14328 ± 2805
6. C/C=C(/C)C(=O)OC[C@H]1[C@@H](Cc2ccc(OC)c(OC)c2)CO[C@@H]1c1ccc(OC)c(OC)c1 [[(2S,3R,4R)-4-(3,4-dimethoxy-benzyl)-2-(3,4-dimethoxy-phenyl)tetrahydrofuran-3-yl]methyl-(2Z)-2-methylbut-2-en-oate]  13581 ± 2096
7. C=C(C)C1COc2cc3oc(=O)ccc3cc2O1 (stereo not drawn) [obliquine]  13450 ± 1956
8. C[C@@H]1CC[C@@H]2C(C)(C)C[C@]3(C)CC=C[C@]123 [silphinene]  13024 ± 2561
9. C/C=C(/C)C(=O)OC[C@H]1[C@@H](Cc2ccc(OC)c(OC)c2)CO[C@@H]1c1cc(OC)c(OC)c(OC)c1 [[(2S,3R,4R)-4-(3,4-dimethoxy-benzyl)-2-(3,4,5-trimethoxy-phenyl)tetrahydrofuran-3-yl]methyl-(2Z)-2-methylbut-2-en-oate]  12842 ± 2984
10. bisabolan A  12599 ± 1728
11. 1-acetyloxy-3-angeloyloxy-(4E,6E)-tetradeca-4,6-dien-8,10,12-triyne and the 4E,6Z isomer  11293 ± 2558
12. ent-kaur-16-enic-19-acid  10559 ± 1391
13. isocomene  8063 ± 1344
14. β -isocomene  7958 ± 1539
15. CC(=O)OCC1=C[C@]2(C)CCC3[C@H](C)CCC32C1C (relative stereo) [[(1R*,3aS,6R)-1,3a,6-trimethyl-1,3a,4,5,5a,6,7,8-octahydrocyclo-penta[c]pentalen-2-yl]methylacetat]  6288 ± 937
16. (4a,7b,8a,9b,15a)-7,9-dihydroxy-15-{[(2Z)-2-methylbut-2-enoyl]oxy} kaur-16-en-19-oate  6241 ± 1352
17. 15-acetoxy-modhephene  5891 ± 1237
18. bisabolan E  5811 ± 1238
